Measurements reported in patent US20120016014A1, “BENZOTHIOPHENE CARBOXAMIDE COMPOUNDS, COMPOSITION AND APPLICATIONS THEREOF” (INDIAN INSTITUTE OF SCIENCE, priority 2010, published 2012).
Some of these results come from one statement about several compounds together.

Assay: Carrageenan induced inflammatory pain model (paw edema)
Details: compared to carrageenan control

## C=CCN(Cc1ccc(C(F)(F)F)cc1)C(=O)c1sc2ccccc2c1Br [Compound 11, 3-bromo-N-(prop-2-en-1-yl)-N-[4-(trifluoromethyl)benzyl]-1-benzo[b]thiophene-2-carboxamide]
  Infiltration of inflammatory cells at the site of injury/inflammation (histology): decreased drastically

## O=C(NCc1cccc2ccccc12)c1sc2ccccc2c1Br [Compound 9, 3-bromo-N-(naphthalen-1-ylmethyl)-benzo[b]thiophene-2-carboxamide]
  Infiltration of inflammatory cells at the site of injury/inflammation (histology): decreased drastically

## C=CCN(Cc1ccc(F)cc1)C(=O)c1sc2ccccc2c1Br [Compound 10, 3-bromo-N-(4-fluorobenzyl)-N-(prop-2-en-1-yl)-benzo[b]thiophene-2-carboxamide]
  Infiltration of inflammatory cells at the site of injury/inflammation (histology): decreased drastically

## O=C(NCc1ccc(F)cc1)c1sc2ccccc2c1Br [Compound 6, N-(4-fluorobenzyl)-3-bromobenzo[b]thiophene-2-carboxamide]
  Infiltration of inflammatory cells at the site of injury/inflammation (histology): decreased drastically

## O=C(NCCc1ccccc1)c1sc2ccccc2c1Br [Compound 8, 3-bromo-N-(2-phenylethyl)-benzo[b]thiophene-2-carboxamide]
  Infiltration of inflammatory cells at the site of injury/inflammation (histology): decreased drastically

## COc1ccc(CNC(=O)c2sc3ccccc3c2Br)cc1 [Compound 5, N-(4-methoxybezyl)-3-bromobenzo[b]thiophene-2-carboxamide]
  Infiltration of inflammatory cells at the site of injury/inflammation (histology): decreased drastically

## O=C(NCc1ccccc1)c1sc2ccccc2c1Br [Compound 4, N-benzyl-3-bromobenzo[b]thiophene-2-carboxamide]
  Infiltration of inflammatory cells at the site of injury/inflammation (histology): decreased drastically
